Broadly, the AC50 is the concentration at which the activity in the assay is half-maximal. Lower therefore signals greater potency.

The assay in a line: qHTS Assay for Lipid Storage Modulators in Drosophila S3 Cells.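 For cell number change: cells counted by Cell Tracker Red CMTPX staining in the red channel.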 The following applies: BODIPY lipid droplet fluorescence, 18-24 h; for cell number change: measured here: cell count max response, cells fed with added oleic acid. In outline: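 Drosophila S3 cells loaded with oleic acid (400 uM, as added) and compounds at several concentrations; lipid droplets imaged by 488-nm laser-scanning cytometry, 500–530 nm intensity and object ratio to cell channel. Percent activity normalized to 20 uM Triacsin C.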
A general note: qHTS replaces the single test concentration by a dilution series.

The mark [1] stands for this setting: measured here: cell number channel AC50, cells fed with added oleic acid.
Where [2] appears, read: measured here: lipid fluorescence (Fed channel) AC50, cells fed with added oleic acid.

Where “and” joins values, the source holds several entries; their conditions need not be identical. Identical values can stand only once. Some of the results follow. Further columns of the screen follow, without active or inactive calls. The list favours compounds with an active or inconclusive main result. Words in brackets tell the shape of the fitted curve; partial curves, single points and poor fits give uncertain potencies.

Consider `C/C(Cl)=C\Cn1c(N2CCCC2)nc2c1c(=O)[nH]c(=O)n2C`, for which the cell number change is -43.4%. The AC50 under setting [1] was 8.2 µM [falling, single point]. Further, the AC50 under setting [2] was 29.1 µM [falling, single point].

In the case of `Cn1cnnc1SCC(=O)Nc1ccc(Cl)c(S(=O)(=O)N2CCOCC2)c1`, the cell number change was -99.3%.

Regarding `C=CCn1c(C)cc(C2=NNC(=NCC)SC2)c1C`, the cell number change was -25.3%. Moreover, the AC50 under setting [2] was 6.51 µM [rising, single point].

On to `Cc1ccc(C(C)C)c(OCC(=O)OCc2c(C)noc2C)c1`, for which the cell number change was -21.9%. Moreover, the AC50 under setting [2] was 0.0259 µM [falling, full curve, poor fit].

In the case of `O/N=C/c1ccc(-c2ccccc2OC(F)(F)F)o1`, the cell number change was -36.2%. In addition, under setting [1], the AC50 was 16.4 µM [falling, single point]. For the same compound, the AC50 under setting [2] is 29.1 µM [falling, single point].

Turning to `C[n+]1cc[nH]c1SCC(=O)c1ccccc1`, the cell number change was -37.7%. The AC50 under setting [1] was 29.1 µM [falling, single point].

In the case of `CCOC(=O)c1c(NC(=O)C2=C(C)NC(=S)NC2c2ccccc2C(F)(F)F)sc(C)c1C` (stereo unspecified), the cell number change is 1.8%. The AC50 under setting [2] was 6.51 µM [rising, single point].

`CNC(=O)CSc1nnnn1-c1ccc(C)cc1C`: the AC50 under setting [1] was 5.8 µM [rising, single point].

As for `FC(F)(F)c1ccc(CSc2nccn2-c2ccccc2)cc1`, the cell number change was -29.1%. For the same compound, the AC50 under setting [2] is 2.06 µM [falling, partial curve].

In the case of `CC(=O)Nc1ccc(C(=O)COC(=O)C2CC3CCCC(C2)C3=O)cc1` (stereo unspecified), the cell number change was -84.5%. Also, the AC50 under setting [1] was 18.4 µM [falling, single point].

In the case of `Cc1nc2ccc(Br)cn2c1C(=O)N/N=C\c1ccccc1Cl`, the cell number change was 11.3%.

On to `COC(=O)c1cccc(C23CC4(C2)[C@H](CN(Cc2ccc(C(F)(F)F)cc2)[C@@H]4c2ccccc2)C3c2ccccc2)c1` (stereo partly specified), for which the cell number change is -54.9%. Further, the concentration at half-maximal activity (AC50) under setting [1] is 9.2 µM [falling, partial curve]. Under setting [2], the AC50 is 14.6 µM [falling, partial curve].

On to `Cc1cccc(C(=O)NC(=S)NNC(=O)COc2c(C)cccc2C)c1`, for which the cell number change worked out at 25.4%. Also, the concentration at half-maximal activity (AC50) under setting [2] is 18.4 µM [rising, single point].

Consider `CSc1ccccc1NC(=O)CN(C)CC(=O)NCC(=O)Nc1ccc(F)cc1`, for which the cell number change turned out to be 5.26%. Moreover, the AC50 under setting [2] was 0.206 µM [falling, full curve, poor fit].

On to `Cc1ccc(C)c(Cn2c(CO)nc3ccccc32)c1`, for which the AC50 under setting [2] was 0.146 µM [rising, full curve, poor fit].

For `COc1ccc(CCNC(=O)Cn2ccc3cc(S(=O)(=O)N4CCCC4)ccc32)cc1OC`, the cell number change was -3.36%. For the same compound, the AC50 under setting [2] is 1.84 µM [rising, single point].

For the compound `CN(c1ccccc1)S(=O)(=O)c1nnc(NC(=O)COc2ccccc2)s1`, the cell number change was determined as 11.6%. The AC50 under setting [2] was 5.17 µM [falling, single point].

As for `COc1cccc(C2=CC(=O)C[C@H](c3ccc(Cl)cc3)C2)c1OC`, the cell number change is -12.9%.

In the case of `CC1(C)S[C@@H]2[C@H](NC(=O)Cc3ccccc3)C(=O)N2[C@H]1C(=O)O`, the cell number change is 5.56% and -15.1%. Moreover, the AC50 under setting [1] was 4.61 µM [rising, single point] and 820 nM [falling, full curve, poor fit].

With `CCS(=O)(=O)Nc1ccc(C2=NN(C(=O)c3ccco3)C(c3cccs3)C2)cc1` (stereo unspecified), the cell number change is -6.12%. Further, the AC50 under setting [1] is 1.64 µM [rising, partial curve]. In addition, the half-maximal activity concentration (AC50) under setting [2] is 4.61 µM [rising, single point].

Regarding `CC(C)CC(=O)NC(=S)Nc1sc2c(c1C(N)=O)CCC2`, the cell number change stood at 77.1%. Besides, the AC50 under setting [1] was 4.61 µM [falling, single point]. Further, the AC50 under setting [2] was 29.1 µM [rising, single point].

With `Cc1ccc2nc(N(CCCN(C)C)C(=O)CN3C(=O)c4ccccc4C3=O)sc2c1`, the half-maximal activity concentration (AC50) under setting [2] is 1.46 µM [rising, full curve].

Take `Cc1ccccc1-c1cccc(CN2CCN(C)C(CCO)C2)c1` (stereo unspecified): the cell number change was 2.64%.

For the compound `COc1ccc(-c2cn3cccnc3n2)cc1NC(=O)C(C)Oc1ccccc1` (stereo unspecified), the cell number change was -21.8%.

For the compound `COc1ccccc1-c1cc(C(=O)O)c2c(=O)n(C)c(=O)n(Cc3ccccc3)c2n1`, the cell number change stood at 23.9%. In addition, the AC50 under setting [2] was 0.146 µM [rising, full curve, poor fit].

On to `CCN1CCN(CC(O)COCc2cc(OC)c(OC)c(OC)c2)CC1` (stereo unspecified), for which the cell number change is -46%. Moreover, the AC50 under setting [1] is 14.6 µM [falling, partial curve]. Moreover, the AC50 under setting [2] is 13 µM [falling, partial curve].

As for `COc1cccc(NC(=O)CN(C)C(=O)CNC(=O)c2ccccc2F)c1`, the cell number change was -1.39%. Further, under setting [1], the AC50 is 1.03 µM [rising, full curve].

`COc1cccc(/C=N/NC(=O)c2ccc(CN3c4cccc5cccc(c45)S3(=O)=O)cc2)c1`: the cell number change is -16.7%. Moreover, under setting [1], the half-maximal activity concentration (AC50) was 0.517 µM [rising, single point]. The AC50 under setting [2] is 0.092 µM [rising, full curve, poor fit].

Take `Cc1ccc(C(=O)N(Cc2cccs2)C2CCS(=O)(=O)C2)cc1` (stereo unspecified): the AC50 under setting [2] is 1.64 µM [falling, partial curve, poor fit].

For `O=C(Nc1ncc2c(n1)-c1ccccc1CC2)c1ccccc1`, the AC50 under setting [1] was 0.731 µM [rising, single point] and the AC50 under setting [2] was 25.9 µM [rising, single point].

Turning to `Cc1ccc(-n2ncc3c(=O)n(CC(=O)N(C)C)cnc32)cc1C`, the cell number change was -4.5%. The half-maximal activity concentration (AC50) under setting [2] is 0.116 µM [rising, partial curve, poor fit].

On to `O=C(c1ccc(S(=O)(=O)N2CCOCC2)cc1)N(c1ccc(F)cc1)C1C=CS(=O)(=O)C1` (stereo unspecified), for which the cell number change was determined as 2.5%. For the same compound, under setting [1], the AC50 was 1.16 µM [falling, full curve]. Also, the AC50 under setting [2] was 11.6 µM [falling, partial curve].

With `O=C(NNC(=O)c1cc(OCC(F)(F)F)ccc1OCC(F)(F)F)c1cccc(C(F)(F)F)c1`, the cell number change was 47.7%. The AC50 under setting [2] was 5.8 µM [falling, single point].

With `Cc1cc(C)nc(SCc2nnc(SCC(=O)Nc3ccc(C)c(C)c3)o2)n1`, the cell number change is 17.9%. Under setting [2], the AC50 was 23.1 µM [rising, single point].

As to `COc1ccc(O)c(/C=C(\C#N)C(=O)Nc2ccccn2)c1`, the cell number change is -8.33%. The AC50 under setting [2] was 0.13 µM [falling, full curve, poor fit].

In the case of `CCOC(=O)[C@@H]1[C@H]2COc3ccccc3[C@H]2N2C(=O)N(c3ccc(OC)cc3)C(=O)[C@]12C`, the cell number change is 0.299%. Besides, the AC50 under setting [2] was 29.1 µM [falling, single point].

Source of the values: PubChem BioAssay AID2685 (National Center for Advancing Translational Sciences (NCATS), 2010).
